The list shows a part of the results.
Molecular target: OsWRKY34 (Oryza sativa, UniProt Q0JBA9 1-250)
Test: protein-binding microarray (RPBM); PBS, 2% BSA, 51.3 ng/ul salmon testes DNA, 50 uM zinc acetate, 200 nM TF, 25 C, 1 h; high values mean tight binding
Details: protein: recombinant; tags: N-terminal polyhistidine and DsRed monomer fusion (pET32a); label: CyDye5-dUTP incorporated in the synthesized complementary strand; 3' TTTTT single-stranded linker to array surface; dsDNA, one strand shown
How it was run: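 Using Ni–NTA, transcription factors fused N-terminally to polyhistidine and DsRed were purified after expression in E. coli BL21-CodonPlus. These were incubated at 200 nM with a blocked, double-stranded custom Agilent array for 1 h at 25 °C in a buffer containing 50 µM zinc acetate, and the array was washed. The binding signal is per-feature fluorescence intensity (arbitrary units) on an Axon 4000B scanner.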

Sequences of proteins named here, by UniProt entry; tags and fusion partners are left off.
UniProt Q0JBA9, entry or part of it: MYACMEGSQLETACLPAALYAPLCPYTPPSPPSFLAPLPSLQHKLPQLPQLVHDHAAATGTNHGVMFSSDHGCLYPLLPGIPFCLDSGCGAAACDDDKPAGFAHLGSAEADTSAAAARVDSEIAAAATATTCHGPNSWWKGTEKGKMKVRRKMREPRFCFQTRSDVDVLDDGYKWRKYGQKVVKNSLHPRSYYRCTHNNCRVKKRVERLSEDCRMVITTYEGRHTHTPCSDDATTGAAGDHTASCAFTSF

Sequence	binding signal
CTCAAGTCTCACACTCTCACATGACCACCTGATCTACTGCCGGAGTCACCTAGTGCAG	8330 fluorescence intensity (a.u.)
GGCGAAGTACTTCTTGGTGTTGTTGCTGCCGCTGCCGGCGCGGAGTCACCTAGTGCAG	8120 fluorescence intensity (a.u.)
TTCACTTTTTTTTCTTCAAGTTCTTGTGGATCTATTTAATCGGAGTCACCTAGTGCAG	9670 fluorescence intensity (a.u.)
TCGGAGAACCTAATTTAACCTAGCTTTGTATATGTTGGGGCGGAGTCACCTAGTGCAG	9270 fluorescence intensity (a.u.)
CTGTCCGAACATAATACTGTCCTGTAACATTCTTATAAAACGGAGTCACCTAGTGCAG	9040 fluorescence intensity (a.u.)
CCCCATCCTCAGCACTCCCATCCTTGGGAAGCAAATCGGGCGGAGTCACCTAGTGCAG	8160 fluorescence intensity (a.u.)
AATAATCTCCTCGCTACACTCTCTCTGCGCTTGTCACAACCGGAGTCACCTAGTGCAG	10300 fluorescence intensity (a.u.)
ACACAAATTTTACACCCTATCACATCGAACACGTTTGAACCGGAGTCACCTAGTGCAG	8220 fluorescence intensity (a.u.)
TCGCGTCAACCCATTATCCTTCACCGCCACACTCGCTGACCGGAGTCACCTAGTGCAG	10800 fluorescence intensity (a.u.)
ATTGTGGGACAGAGGAAGTATATTATTGTTCACTTCTTTTCGGAGTCACCTAGTGCAG	9840 fluorescence intensity (a.u.)
ATTATTTTTTCTGTGGTTGAGATGTGGGCCTATGATTTTTCGGAGTCACCTAGTGCAG	10300 fluorescence intensity (a.u.)
TTGACTTTTTTAAACATGTTTAACTGTTCGTCTTATTAAACGGAGTCACCTAGTGCAG	8820 fluorescence intensity (a.u.)
TTCTCCGGATCGCTTCTTCCACCTCGCGCGCACTTCACCTCGGAGTCACCTAGTGCAG	9580 fluorescence intensity (a.u.)
AATTCTCTCTCTTGCTTTCTCTCTCCTCGCTTCCCGGGTTCGGAGTCACCTAGTGCAG	9980 fluorescence intensity (a.u.)
ATCCACACTGGCCTCTCGTCCTCACTCCATAACGGCCATGCGGAGTCACCTAGTGCAG	10200 fluorescence intensity (a.u.)
CTGCTATCTCCCTTACTGGCGTCCGCTGGGGAGGAGGAGGCGGAGTCACCTAGTGCAG	8480 fluorescence intensity (a.u.)
GATCGCCTCGCTCGCTTTCGCCTGTTGCTTCACGTTTCGGCGGAGTCACCTAGTGCAG	9220 fluorescence intensity (a.u.)
CTAATTTTTAGTCTAACAGCAGCTTTCAAACCGCATTCTTCGGAGTCACCTAGTGCAG	9250 fluorescence intensity (a.u.)
TCAGTCGTCACCCCATCATTCTCACGCAATGGGTCAGCAACGGAGTCACCTAGTGCAG	9310 fluorescence intensity (a.u.)
CACGTCTCAGCTCATTCGTCCTCGTCGCGCGCACACGATCCGGAGTCACCTAGTGCAG	8600 fluorescence intensity (a.u.)
CTTGCTGTTCATCCTTCTTCTCAAAGAATCTCATATCCCCCGGAGTCACCTAGTGCAG	10400 fluorescence intensity (a.u.)

Sequence	binding signal
CACAAAACTCAGCACGCGGCTATTCACATACTATCGCCAACGGAGTCACCTAGTGCAG	9430 fluorescence intensity (a.u.)
CATCTGTGCCGTATGTATTGCATTCGCGCCGCCGCCGCCGCGGAGTCACCTAGTGCAG	10900 fluorescence intensity (a.u.)
TAGTAGTAGGGTGTTGTGTGGCGCCTCTCGCCGCGAAACGCGGAGTCACCTAGTGCAG	9210 fluorescence intensity (a.u.)
CTACTATGCAAATAATTTTGCCCGTGTTTTACCCCTTTTTCGGAGTCACCTAGTGCAG	9630 fluorescence intensity (a.u.)
AACTCACGTCTCCGTCTCCTCGTAGTATCTGACTTTTAAGCGGAGTCACCTAGTGCAG	11400 fluorescence intensity (a.u.)
CCTTGGGTGTACTTTTTCCTATCCGCGTTCTTTGACACGACGGAGTCACCTAGTGCAG	13600 fluorescence intensity (a.u.)
TTGTTGAGGTCCACCACCAGCGTCACGCCCTGCAGCGGTCCGGAGTCACCTAGTGCAG	8820 fluorescence intensity (a.u.)
GCACCTCGGCCTCCTTTTCCACACTTTTCACCGTGTTCCTCGGAGTCACCTAGTGCAG	8960 fluorescence intensity (a.u.)
CGGATACAGCGGGTAGTTGCTTTTACATGGGTTGCAGGATCGGAGTCACCTAGTGCAG	9150 fluorescence intensity (a.u.)
ATATATTTGTCTTGGGTTGAAAATGTTACTATTTTTCTCTCGGAGTCACCTAGTGCAG	10700 fluorescence intensity (a.u.)
AAACCTTTGGACATGTCATTTTGGACCTAACCACATCCTTCGGAGTCACCTAGTGCAG	10900 fluorescence intensity (a.u.)
GTGTCTCCCAGAGGGGAGTTGGTGGTGTTCCTGGAGCTTCCGGAGTCACCTAGTGCAG	8280 fluorescence intensity (a.u.)
GGTTGTTGAGTTGTGTGTGAGGCGTATATAACGCCAGCCTCGGAGTCACCTAGTGCAG	10200 fluorescence intensity (a.u.)
GGTCACCACTTGTCAAGTTGTCATCATCACTGGCCTACTCCGGAGTCACCTAGTGCAG	8490 fluorescence intensity (a.u.)
ACCTTGCCTCGCCTCGCCTCGCCGGATCCAGATCTCCACCCGGAGTCACCTAGTGCAG	8250 fluorescence intensity (a.u.)
TATTTTTATCTAAACTTAGTCAAACGTAAAGAAGTTTGACCGGAGTCACCTAGTGCAG	8180 fluorescence intensity (a.u.)
CAAGATGGCTACACTGTCACTCACTCACTCCGCCGCTTTTCGGAGTCACCTAGTGCAG	9420 fluorescence intensity (a.u.)
TCTGGGTCGGCTGTTTGTGTATTACACTTACTATGAATCTCGGAGTCACCTAGTGCAG	11700 fluorescence intensity (a.u.)
GGTTTTGGTTGGGGTTTTGATACCGTCTGAGCCTGCGATTCGGAGTCACCTAGTGCAG	10900 fluorescence intensity (a.u.)
GCATCTACCCGTCCAACTCATTTATCAGCATGCAAATTTTCGGAGTCACCTAGTGCAG	9190 fluorescence intensity (a.u.)
CATAAAGAGGGTGGTCGCGTTTCTTCTTCCATTTTTAATTCGGAGTCACCTAGTGCAG	10400 fluorescence intensity (a.u.)

Sequence	binding signal
ACATATTATCGCATCTTCATTTTTTCTTTTCATGTGCCTTCGGAGTCACCTAGTGCAG	10800 fluorescence intensity (a.u.)
AGCATATCTATCCATCCACCTGCGCCGATCTCTGTAACCTCGGAGTCACCTAGTGCAG	9720 fluorescence intensity (a.u.)
ATACGACATTCACCAGTAATCTAATGATCCAATGATCCTACGGAGTCACCTAGTGCAG	8360 fluorescence intensity (a.u.)
CCAGCGACCCACCGGCCACCACCTCGCACTCTCCGTCTCCCGGAGTCACCTAGTGCAG	13800 fluorescence intensity (a.u.)
CCACAGCACCGCCCACCTGAGCCGAGCCCGCTGCAAAATACGGAGTCACCTAGTGCAG	9420 fluorescence intensity (a.u.)
GATGAGATTTGTCTGCCCCGATTGGTTTTCTCCATTTCTTCGGAGTCACCTAGTGCAG	9280 fluorescence intensity (a.u.)
CACTCTACCTAGCTTACACCTACCCACATCAACCTTACACCGGAGTCACCTAGTGCAG	12300 fluorescence intensity (a.u.)
GCGGGCGCACGGGTGGGTGGTGTTCTGGGGCGGAGGCAGCCGGAGTCACCTAGTGCAG	16000 fluorescence intensity (a.u.)
TTCCTACCATCACTTCTCTCGTTTTGCTATCGATCTCATGCGGAGTCACCTAGTGCAG	9180 fluorescence intensity (a.u.)
AGCCACGACCCAATCTTCGCTGCGGTTGACTTTAAATTAACGGAGTCACCTAGTGCAG	9760 fluorescence intensity (a.u.)
CCTTACATATTCATGCACCACTCCACCCATAACGGGTCAACGGAGTCACCTAGTGCAG	9100 fluorescence intensity (a.u.)
CACACCTCTCACAATAATTATGGATGTTATACCTGGTAATCGGAGTCACCTAGTGCAG	9340 fluorescence intensity (a.u.)
GAGCTCAAATCCGCAGCCTGGTGGGGAGGGGAGGTGGGTCCGGAGTCACCTAGTGCAG	13400 fluorescence intensity (a.u.)
AATAGTAGGAAGTGTGCTATATTATTATCCTTGCTCTCATCGGAGTCACCTAGTGCAG	8720 fluorescence intensity (a.u.)
CGACCGTTTGTATATTTTTGCCTGATAATTAAGTTGGATACGGAGTCACCTAGTGCAG	9970 fluorescence intensity (a.u.)
CTCCGAGGCCGGCGCCGCTGACGATGTCGTCCTAGTCTTCCGGAGTCACCTAGTGCAG	9010 fluorescence intensity (a.u.)
GTAATTAACCAGAATTCAGGTTTTGTCAGTGCCACCATCACGGAGTCACCTAGTGCAG	9850 fluorescence intensity (a.u.)
TTTCATTTTTTTTTACCACCTCACCTTCTGTGTTTCTTTTCGGAGTCACCTAGTGCAG	9040 fluorescence intensity (a.u.)
ATCCCTGCTCCAGCGCGATGTCGTCGATGGCTTCCACCCGCGGAGTCACCTAGTGCAG	8500 fluorescence intensity (a.u.)
ATGGGTTTTTTGGGCTTGTAATATGCTAGTGTTAATAGTCCGGAGTCACCTAGTGCAG	9020 fluorescence intensity (a.u.)
GCTATCTCGCCGTACCGCCGTCGCCGCTTCCTCTCGCACGCGGAGTCACCTAGTGCAG	15200 fluorescence intensity (a.u.)

Some of the entries so far, comma-delimited:
Sequence,binding signal
GATGAGATTTGTCTGCCCCGATTGGTTTTCTCCATTTCTTCGGAGTCACCTAGTGCAG,9280 fluorescence intensity (a.u.)
CACTCTACCTAGCTTACACCTACCCACATCAACCTTACACCGGAGTCACCTAGTGCAG,12300 fluorescence intensity (a.u.)
GCGGGCGCACGGGTGGGTGGTGTTCTGGGGCGGAGGCAGCCGGAGTCACCTAGTGCAG,16000 fluorescence intensity (a.u.)
TTCCTACCATCACTTCTCTCGTTTTGCTATCGATCTCATGCGGAGTCACCTAGTGCAG,9180 fluorescence intensity (a.u.)
AGCCACGACCCAATCTTCGCTGCGGTTGACTTTAAATTAACGGAGTCACCTAGTGCAG,9760 fluorescence intensity (a.u.)
CCTTACATATTCATGCACCACTCCACCCATAACGGGTCAACGGAGTCACCTAGTGCAG,9100 fluorescence intensity (a.u.)
CACACCTCTCACAATAATTATGGATGTTATACCTGGTAATCGGAGTCACCTAGTGCAG,9340 fluorescence intensity (a.u.)
GAGCTCAAATCCGCAGCCTGGTGGGGAGGGGAGGTGGGTCCGGAGTCACCTAGTGCAG,13400 fluorescence intensity (a.u.)
AATAGTAGGAAGTGTGCTATATTATTATCCTTGCTCTCATCGGAGTCACCTAGTGCAG,8720 fluorescence intensity (a.u.)
CGACCGTTTGTATATTTTTGCCTGATAATTAAGTTGGATACGGAGTCACCTAGTGCAG,9970 fluorescence intensity (a.u.)
CTCCGAGGCCGGCGCCGCTGACGATGTCGTCCTAGTCTTCCGGAGTCACCTAGTGCAG,9010 fluorescence intensity (a.u.)
GTAATTAACCAGAATTCAGGTTTTGTCAGTGCCACCATCACGGAGTCACCTAGTGCAG,9850 fluorescence intensity (a.u.)
TTTCATTTTTTTTTACCACCTCACCTTCTGTGTTTCTTTTCGGAGTCACCTAGTGCAG,9040 fluorescence intensity (a.u.)
ATCCCTGCTCCAGCGCGATGTCGTCGATGGCTTCCACCCGCGGAGTCACCTAGTGCAG,8500 fluorescence intensity (a.u.)
ATGGGTTTTTTGGGCTTGTAATATGCTAGTGTTAATAGTCCGGAGTCACCTAGTGCAG,9020 fluorescence intensity (a.u.)

The listing continues:

Sequence	binding signal
GTTTTGCATGTCCGTATTTAGTATGAATCTTTATAAGATTCGGAGTCACCTAGTGCAG	8710 fluorescence intensity (a.u.)
GGGTGGGTAGACCGCGCCACCTACATGTCTCATTAGTACACGGAGTCACCTAGTGCAG	8320 fluorescence intensity (a.u.)
AGAGCGTCTCATCGACTCTCTTACCCCGGTTTCTTCCGCGCGGAGTCACCTAGTGCAG	8790 fluorescence intensity (a.u.)
AAATATTGATGTTTTTCATGCCGTCCATTTCACGACATCACGGAGTCACCTAGTGCAG	8060 fluorescence intensity (a.u.)
ACATTTGTTGGTGGACTGCAATTTTCTTTCTCAGCTTTAACGGAGTCACCTAGTGCAG	11100 fluorescence intensity (a.u.)
TCATGGTTCTTTTGATTAGTTCATGATGGTTTTGAAATTACGGAGTCACCTAGTGCAG	8890 fluorescence intensity (a.u.)
TCCAACCATTACTGCATCGCGTCAGCTCACGTGGACCCACCGGAGTCACCTAGTGCAG	8260 fluorescence intensity (a.u.)
CTCTCAGCACTCTGCTCTAGTTTCTTGGAGGTCCTGCACCCGGAGTCACCTAGTGCAG	8470 fluorescence intensity (a.u.)
ACCCAAAAACTGTCCCTTATTTGCTACCGGTACCATTACGCGGAGTCACCTAGTGCAG	8570 fluorescence intensity (a.u.)
ATTTTAATCAATGTCATGTTGTGTTCTGCGTGCATGTTTTCGGAGTCACCTAGTGCAG	10700 fluorescence intensity (a.u.)
ATGAGCATTATCCATCAGTATCCGCTACGTTTTCATCCCACGGAGTCACCTAGTGCAG	8120 fluorescence intensity (a.u.)
CTCCTCTCGCCGCCGCCGCCACCGCCACCGCCGCCGCTCCCGGAGTCACCTAGTGCAG	10100 fluorescence intensity (a.u.)
TGGCTAACAGGTTTTACATTATTTGGTCCATAATTAACTACGGAGTCACCTAGTGCAG	8710 fluorescence intensity (a.u.)
TTCCCAAACTCGATCACTCGCTTCTCTCACCTGCTCGAGACGGAGTCACCTAGTGCAG	8970 fluorescence intensity (a.u.)
CTCGTCTCTCTCCTATCCGTCTCCTACAGTCGTCGTCCTCCGGAGTCACCTAGTGCAG	10800 fluorescence intensity (a.u.)
TGGCTCCTCCATGACTCCATCCACGAGTGCAGCCTCTGCCCGGAGTCACCTAGTGCAG	8130 fluorescence intensity (a.u.)
TTTATTTTCTTGTGACTTGATTTATCATCAAATGTTCTTTCGGAGTCACCTAGTGCAG	9610 fluorescence intensity (a.u.)
TCACTCCATCCATCTAACCAAACATCCTATCACAAAATTTCGGAGTCACCTAGTGCAG	8990 fluorescence intensity (a.u.)
TTGGGTGGATTAGAGTTTAAATCCTTTCAATTTCATGTTTCGGAGTCACCTAGTGCAG	9320 fluorescence intensity (a.u.)
GAACTAAACCGCGGGCCTTACTTCTGTTCGTACTAGTATGCGGAGTCACCTAGTGCAG	9420 fluorescence intensity (a.u.)
GCCTTTGTCGGTCATGTTCCCATCGCTTTAGTTCTTCTCACGGAGTCACCTAGTGCAG	15000 fluorescence intensity (a.u.)

Source: paper PMC7819943, “Rice protein-binding microarrays: a tool to detect cis-acting elements near promoter regions in rice”
